PubChem BioAssay AID504467 (National Center for Advancing Translational Sciences (NCATS), 2011)
Screen size: about 330,000 compounds; about 7,700 (2.3%) were called active. This list was built around the results that the source calls inconclusive (neither active nor inactive); the mix of calls is not that of the screen. Calls come from the whole dose curve; as a rule, active = well fitted inhibition curve with a large enough effect; inconclusive = small, poorly fitted or top-dose-only effect, or effect the other way; inactive = flat fitted curve, though single readings scatter. Potencies of inconclusive entries are doubtful fits and often do not repeat.

test: qHTS screen for small molecules that inhibit ELG1-dependent DNA repair in human embryonic kidney (HEK293T) cells expressing luciferase-tagged ELG1; details: HEK293T ELG1-luciferase reporter, luminescence, 16 h, DNA damage induced by 5-fluorouridine; activity change, negative = inhibition: at 46.1 µM (top of the series); note: nearly all actives have a fitted effect of over 55% in size
Outline: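 Cells (2,000 per well) received 5-fluorouridine plus test compound or DMSO and were incubated 16 hr at 37 °C, 5% CO2. Luciferase activity was read by luminescence 30 min after ONE-Glo addition; signal suppression marked inhibition of damage-induced ELG1 function.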
% is set by controls: 0 for no effect and ±100 for the full control effect; potency is the fitted concentration of half-maximal effect.

Structure (SMILES) | Potency | activity change, negative = inhibition
CC(NCc1ccc(S(N)(=O)=O)cc1)C(=O)NCc1ccccc1 (centres undefined) | inconclusive: 1.16 µM [inhibitor, single point] | –
COc1ccccc1CN=C1Nc2ccccc2CS1 | inconclusive: 18.3 µM [activator, partial curve] | –
Cc1oc2cc3oc(=O)ccc3cc2c1C | inconclusive: 13 µM [activator, partial curve] | –
Cc1ccccc1/C=N/Nc1nc2ccccc2c(=O)n1O | – | inactive: 25.7%
CCOc1ccc(N2C(=O)/C(=C/c3ccccc3)N=C2SC)cc1 | inconclusive: 5.17 µM [activator, partial curve] | –
Clc1ccc(-c2cn3cc(Br)ccc3n2)cc1Cl | inconclusive: 0.366 µM [activator, full curve] | –
COC(=O)c1cccc(/C=N/NC(N)=S)c1O | – | inactive: 4.94%
COc1cc(C)c(Cl)cc1S(=O)(=O)n1cnc(C)c1 | inconclusive: 18.4 µM [activator, partial curve, poor fit] | –
C=CCN1C(=O)/C(=C/c2ccc(-c3ccc(F)cc3)o2)SC1=S | inconclusive: 0.231 µM [inhibitor, single point] | –
COc1cc(C(=O)Nc2ccccc2C(=O)NCc2cccnc2)cc(OC)c1OC | inconclusive: 20.6 µM [inhibitor, single point] | –
CN(C)C(=O)N1CCC(C(=O)NCc2ccccc2)CC1 | inconclusive: 32.6 µM [activator, partial curve, poor fit] | –
O=C(Nc1ccc(Cl)cn1)c1ccc2c(c1)OCCO2 | inconclusive: 2.06 µM [activator, partial curve] | –
Cc1ccc(C)c2[nH]c(=O)c(C(c3nnnn3Cc3ccco3)N3CCc4ccccc4C3)cc12 (centres undefined) | inconclusive: 11.2 µM [inhibitor, partial curve, poor fit] | –
CCOc1ccc(C(=O)Nc2ccccc2N2CCN(C(=O)c3ccccc3)CC2)cc1[N+](=O)[O-] | active: 4.61 µM | –
O=C(C1=C[C@@H](c2ccc(C(F)(F)F)cc2)C[C@@H](OCCCCO)O1)N1CCN(Cc2ccccc2)CC1 | inconclusive: 18.3 µM [inhibitor, single point] | –
COc1cc(NC(=O)c2cc([N+](=O)[O-])ccc2NC(=O)CN2CCN(c3ccccn3)CC2)cc(OC)c1 | inconclusive: 14.6 µM [inhibitor, partial curve, poor fit] | –
COc1ccc(-c2[nH]c(-c3ccccc3)nc2SCC(=O)Nc2nccs2)cc1 | inconclusive: 16.4 µM [inhibitor, single point] | –
CCOc1cc(C2c3c(n[nH]c3C)C(=O)N2c2ccc(Br)cc2)ccc1O (centres undefined) | inconclusive: 32.6 µM [activator, partial curve, poor fit] | –
N=C1/C(=C/c2coc3ccccc3c2=O)C(=O)N=C2SC(c3ccco3)=NN12 | – | inactive: 0%
NNC(=O)COc1ccc(C(F)(F)F)cc1 | – | inactive: 11.8%
Cc1cc(-c2ccc(C(C)C)c(S(=O)(=O)Nc3ccccn3)c2)on1 | inconclusive: 14.6 µM [activator, partial curve] | –
O=C(C1CCCO1)N1N=C(c2ccc(Br)cc2)CC1c1ccco1 (centres undefined) | inconclusive: 16.4 µM [inhibitor, partial curve] | –
Cc1ccccc1C(=O)N1CCC(C(=O)Nc2ccc(S(=O)(=O)N3CCCCC3)cc2)CC1 | active: 14.6 µM | –

Structure (SMILES) | Potency | activity change, negative = inhibition
COc1cc(/C=C2/C(=O)NN(c3cccc(C)c3)C2=O)ccc1OC(=O)c1ccco1 | inconclusive: 18.4 µM [activator, single point] | –
Cc1ccc(OCC(=O)Nc2cccc(S(=O)(=O)N3CCCCCC3)c2)cc1C | – | inactive: -0.988%
C/C(=N\NC(=O)c1nnn(-c2nonc2N)c1CSc1ccc(C)cc1)c1ccco1 | – | inactive: 1.9%
O=C(c1ccc2ccccc2c1)N1CCN(c2ccc([N+](=O)[O-])c(N3CCOCC3)c2)CC1 | inconclusive: 29.1 µM [inhibitor, single point] | –
Cc1ccc(S(=O)(=O)c2cn(Cc3ccc(F)cc3)c3cc4c(cc3c2=O)OCO4)cc1 | – | inactive: -8.5%
C/C(=C\C(=S)Nc1ccccc1)Nc1ccc2ccccc2c1 | inconclusive: 18.4 µM [activator, partial curve] | –
CCOC(=O)/C=C/C(=O)Nc1ccccc1-c1ccccc1NC(=O)/C=C/C(=O)OCC | inconclusive: 6.51 µM [activator, partial curve, poor fit] | –
O=C(Cc1ccccc1F)NNC(=O)c1cccs1 | inconclusive: 18.3 µM [activator, single point] | –
CCOC(=O)c1c(N)nn(C(C)=O)c1-c1ccccc1 | inconclusive: 7.31 µM [inhibitor, partial curve, poor fit] | –
Cc1nc2nc(-c3ccco3)nn2c(C)c1Cl | inconclusive: 14.6 µM [activator, partial curve] | –
Cc1ccc(N/C=C/C(=O)c2cccs2)cc1 | inconclusive: 1.46 µM [activator, partial curve] | –
COc1cccc(Nc2nc(N)c([N+](=O)[O-])c(NCc3ccccc3)n2)c1 | inconclusive: 18.3 µM [inhibitor, single point] | –
CCOCCCNC(=O)c1cc(Sc2ccc(C)cc2)nc2ccccc12 | inconclusive: 29.1 µM [inhibitor, single point] | –
CN(CC(=O)Nc1ccccc1Br)C(=O)c1ccccc1-c1nc2ccccc2s1 | active: 20.6 µM | –
N#Cc1c(-c2ccccc2)nc(SCc2ccc(Cl)cc2)[nH]c1=O | – | inactive: 9.39%
Cc1ccc(/C=C2\SC(=S)N(c3c(C)n(C)n(-c4ccccc4)c3=O)C2=O)cc1 | – | inactive: -18.2%
O=C(CCc1nc2ccccc2c(=O)[nH]1)NCc1cccc(Cl)c1 | – | inactive: -4.98%
CCn1nc(C(=O)Nc2ccc(C)c(C)c2)c(Cl)c1Cl | inconclusive: 0.92 µM [activator, full curve, poor fit] | –
COC(=O)c1cc(NC(=O)Cc2cc(OC)c(OC)c(OC)c2)cc(C(=O)OC)c1 | inconclusive: 5.17 µM [inhibitor, partial curve] | –
O=C(c1cc2sccc2n1Cc1ccc(F)cc1)N1CCN(c2nc3ccccc3s2)CC1 | inconclusive: 2.59 µM [inhibitor, full curve] | –
O=c1c2ccccc2c(C=NCc2ccccn2)c(O)n1-c1ccccc1 | – | inactive: -10.3%
Cn1nnnc1SCC(=O)Nc1ccc(Oc2ccccc2)cc1 | inconclusive: 14.6 µM [activator, partial curve, poor fit] | –
COc1ccc(C(=O)Nc2cnn(Cc3c(F)cccc3Cl)c2)cc1OC | inconclusive: 1.83 µM [inhibitor, partial curve] | –

Ordered by length of the SMILES (low to high): part of the list above.
Structure (SMILES) | Potency | activity change, negative = inhibition
Cc1nc2nc(-c3ccco3)nn2c(C)c1Cl | inconclusive: 14.6 µM [activator, partial curve] | –
CCOC(=O)c1c(N)nn(C(C)=O)c1-c1ccccc1 | inconclusive: 7.31 µM [inhibitor, partial curve, poor fit] | –
C/C(=C\C(=S)Nc1ccccc1)Nc1ccc2ccccc2c1 | inconclusive: 18.4 µM [activator, partial curve] | –
CCOCCCNC(=O)c1cc(Sc2ccc(C)cc2)nc2ccccc12 | inconclusive: 29.1 µM [inhibitor, single point] | –
O=c1c2ccccc2c(C=NCc2ccccn2)c(O)n1-c1ccccc1 | – | inactive: -10.3%
N#Cc1c(-c2ccccc2)nc(SCc2ccc(Cl)cc2)[nH]c1=O | – | inactive: 9.39%
CN(CC(=O)Nc1ccccc1Br)C(=O)c1ccccc1-c1nc2ccccc2s1 | active: 20.6 µM | –
COc1cccc(Nc2nc(N)c([N+](=O)[O-])c(NCc3ccccc3)n2)c1 | inconclusive: 18.3 µM [inhibitor, single point] | –
C/C(=N\NC(=O)c1nnn(-c2nonc2N)c1CSc1ccc(C)cc1)c1ccco1 | – | inactive: 1.9%
COC(=O)c1cc(NC(=O)Cc2cc(OC)c(OC)c(OC)c2)cc(C(=O)OC)c1 | inconclusive: 5.17 µM [inhibitor, partial curve] | –
CCOC(=O)/C=C/C(=O)Nc1ccccc1-c1ccccc1NC(=O)/C=C/C(=O)OCC | inconclusive: 6.51 µM [activator, partial curve, poor fit] | –
Cc1ccc(/C=C2\SC(=S)N(c3c(C)n(C)n(-c4ccccc4)c3=O)C2=O)cc1 | – | inactive: -18.2%
Cc1ccc(S(=O)(=O)c2cn(Cc3ccc(F)cc3)c3cc4c(cc3c2=O)OCO4)cc1 | – | inactive: -8.5%
O=C(c1ccc2ccccc2c1)N1CCN(c2ccc([N+](=O)[O-])c(N3CCOCC3)c2)CC1 | inconclusive: 29.1 µM [inhibitor, single point] | –

Remaining list, next part:

Structure (SMILES) | Potency | activity change, negative = inhibition
Cc1ccc(S(=O)(=O)N(C)CC(=O)NNC(=O)CCS(=O)(=O)c2ccccc2)cc1 | inconclusive: 7.3 µM [activator, single point] | –
CCN1CCN(c2c(Cl)cccc2NC(=O)c2ccc(Br)o2)CC1 | inconclusive: 14.1 µM [inhibitor, single point] | –
C=CCn1c(SCc2ccc(F)cc2)nc2c1c(=O)[nH]c(=O)n2C | – | inactive: -1.24%
Cc1onc(-c2c(Cl)cccc2Cl)c1C(=O)NC(=S)N1CCOCC1 | – | inactive: -17.4%
N#Cc1cnn(-c2ccccc2)c1NC(=O)CN1CCN(c2ccccc2)CC1 | – | inactive: -5.98%
Cn1c(CO)cnc1S(=O)(=O)Cc1ccc([N+](=O)[O-])cc1 | – | inactive: -0.853%
O=C(Nc1nc(-c2ccccn2)cs1)c1ccc([N+](=O)[O-])o1 | inconclusive: 0.82 µM [inhibitor, full curve, poor fit] | –
COc1ccc(CCN2CC(C(=O)Nc3cc(F)ccc3F)CC2=O)cc1OC (centres undefined) | – | inactive: 0.628%
COc1cc(OC)c(C(=O)N/N=C/c2ccoc2)cc1OC | – | inactive: -4.24%
CCCn1nc(NS(=O)(=O)c2cccc3nonc23)c2cc3cc(C)ccc3nc21 | inconclusive: 14.6 µM [activator, partial curve] | –
O=S(=O)(c1ccc(NC(=S)NCc2cccnc2)cc1)N1CCCCC1 | inconclusive: 1.83 µM [inhibitor, full curve] | –
O=C(CNC(=O)c1cccs1)c1ccc(Br)cc1 | inconclusive: 6.51 µM [activator, partial curve] | –
O=C(Nc1ccccc1Cl)N1CCN(Cc2ccc3c(c2)OCO3)CC1 | – | inactive: 2.65%
Cc1ccc(N2C(=N)/C(=C3/Nc4ccccc4S3)C(c3ccccc3)C2=O)cc1 (centres undefined) | inconclusive: 20.6 µM [activator, partial curve] | –
CN(C)C(/C=C/Nc1ccc(F)cc1F)=C(C#N)C#N | – | inactive: 7.72%
CC(=O)OCC(=O)[C@@]1(O)CC[C@H]2[C@@H]3CCC4=CC(=O)C=C[C@]4(C)[C@H]3C(=O)C[C@@]21C | – | inactive: 0%
COc1cccc(CC2CC(=O)N(c3ccc4c(C)cc(=O)oc4c3)C2=O)c1 (centres undefined) | – | inactive: 10.7%
CC(C)(C)OC(=O)N/N=C/c1ccc(N2CCOCC2)s1 | inconclusive: 20.6 µM [activator, single point] | –
Cc1ccc(C)c(SCC(=O)Nc2nnc(-c3ccccc3)o2)c1 | – | inactive: -0.942%
COc1cccc(-c2nn(C)c3sc(C(=O)N4CCN(c5ccccn5)CC4)cc23)c1 | inconclusive: 29.1 µM [inhibitor, single point] | –
CN(CC(=O)Nc1ccccc1)CC(=O)Nc1ccccc1Cl | inconclusive: 25.9 µM [activator, single point] | –
CCOC(=O)c1c(NC(N)=O)nc2n1CCC2 | inconclusive: 23.1 µM [activator, partial curve, poor fit] | –
CC(=O)c1cccc(NS(=O)(=O)c2ccc(N/C=C\C(=O)c3ccc(F)cc3)cc2)c1 | inconclusive: 22.4 µM [inhibitor, single point] | –
